Measurements: PubChem BioAssay AID192 (DTP/NCI, 2004)
The list is a part of this screen's results and no random one: it gathers tests that were run many times, whatever their T/C, doses with no T/C, and many T/C values between a quarter and a half above the control. Further doses and runs are listed elsewhere. T/C is the treated group as % of the vehicle group. Some entries give survivors of the animals treated and no T/C: the source files T/C as zero there, which appears to mark a toxic dose or a test without result, not a measured value. Some survivor counts are full or nearly so, which does not show that the dose was tolerated: the source hardly ever lists a survival T/C far under the control, and the zero likely stands for such cases as well. Counts of survivors are from the toxicity check (mostly the fifth day) where no day follows; animals may have died later. Schedules are NCI's codes, read here as Q, the interval in days (D) or hours (H), X, the number of doses. Some doses were run more than once; the results are listed from low to high. For survival time, this PubChem deposit counts one and a half times the control or more as active, and values a quarter to a half above the control carry no call in these data; other NCI protocols may use other cut-offs. Some T/C values are followed by the survivors on the day toxicity was checked, most often the fifth; where none is given, no animal had died by that day.

Test system: BDF1 mice, B16 melanoma ip, median survival T/C
Experiment: NCI In Vivo Anticancer Drug Screen. Data for tumor model B16 Melanoma (intraperitoneal) in B6D2F1 (BDF1) mice
Conditions: T/C endpoint: median survival time, higher T/C = longer survival
Summary of the method: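 Transplantable tumor model; survival or tumor size measured; reported as T/C, treated over vehicle control.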

[1] = dose: 1.25 mg/kg/injection, schedule: Q01DX009 (ip), vehicle: saline
[2] = dose: 2.5 mg/kg/injection, schedule: Q01DX009 (ip), vehicle: saline
[3] = dose: 5.0 mg/kg/injection, schedule: Q01DX009 (ip), vehicle: saline
[4] = dose: 100.0 mg/kg/injection, schedule: Q01DX009 (ip), vehicle: saline with Tween-80
[5] = dose: 200.0 mg/kg/injection, schedule: Q01DX009 (ip), vehicle: saline with Tween-80
[6] = dose: 400.0 mg/kg/injection, schedule: Q01DX009 (ip), vehicle: saline with Tween-80
[7] = dose: 37.5 mg/kg/injection, schedule: Q01DX009 (ip), vehicle: alcohol
[8] = dose: 100.0 mg/kg/injection, schedule: Q01DX009 (ip), vehicle: Klucel (hydroxypropylcellulose) (HPC)
[9] = dose: 200.0 mg/kg/injection, schedule: Q01DX009 (ip), vehicle: Klucel (hydroxypropylcellulose) (HPC)
[10] = dose: 400.0 mg/kg/injection, schedule: Q01DX009 (ip), vehicle: Klucel (hydroxypropylcellulose) (HPC)

C/C=C(\C)c1cc(=O)c2c(C)cc3c(c2o1)C(=O)c1c(O)c(C2CC(C)(N(C)C)C(O)C(C)O2)cc(C2CC(N(C)C)C(O)C(C)O2)c1C3=O (stereo not drawn) was tested, and the survivor count (dose: 0.62 mg/kg/injection, schedule: Q01DX009 (ip), vehicle: saline) was 10 of 10, the T/C (dose: 1.0 mg/kg/injection, schedule: Q01DX009 (ip), vehicle: Klucel (hydroxypropylcellulose) (HPC)) was 130 % of control and the survivor count [1] was 10 of 10. The T/C (dose: 2.0 mg/kg/injection, schedule: Q01DX009 (ip), vehicle: Klucel (hydroxypropylcellulose) (HPC)) was 131 % of control, the survivor count [2] was 10 of 10 and the survivor count (dose: 4.0 mg/kg/injection, schedule: Q01DX009 (ip), vehicle: Klucel (hydroxypropylcellulose) (HPC)) was 10 of 10. The survivor count [3] was 5 of 10, the T/C (dose: 78.0 micrograms/kg/injection, schedule: Q01DX009 (ip), vehicle: saline) was 138 % of control and the T/C (dose: 78.12 micrograms/kg/injection, schedule: Q01DX009 (ip), vehicle: saline) was 125 % of control [9 of 10 alive]. For the same compound, the T/C (dose: 125.0 micrograms/kg/injection, schedule: Q01DX009 (ip), vehicle: saline) was 131 % of control, the T/C (dose: 156.25 micrograms/kg/injection, schedule: Q01DX009 (ip), vehicle: saline) was 132 % of control and the T/C (dose: 312.0 micrograms/kg/injection, schedule: Q01DX009 (ip), vehicle: saline) was 137 % of control. The survivor count (dose: 500.0 micrograms/kg/injection, schedule: Q01DX009 (ip), vehicle: saline) was 10 of 10, the survivor count (dose: 1000.0 micrograms/kg/injection, schedule: Q01DX009 (ip), vehicle: saline) was 10 of 10 and the survivor count (dose: 1250.0 micrograms/kg/injection, schedule: Q01DX009 (ip), vehicle: saline) was 10 of 10.

For O=C1C=C[C@H](O)[C@@]2(CO)O[C@@H]12, the survivor count (dose: 20.0 mg/kg/injection, schedule: Q01DX009 (ip), vehicle: saline with Tween-80) was 1 of 10 and the survivor count (dose: 30.0 mg/kg/injection, schedule: Q01DX009 (ip), vehicle: saline with Tween-80) was 0 of 10.

For C/C(C/C(C)=N/O)=N/O.C/C(C/C(C)=N/O)=N\O.[Cl][Rh][Cl], the survivor count (dose: 25.0 mg/kg/injection, schedule: Q01DX009 (ip), vehicle: saline with Tween-80) was 7 of 8.

For C#C[C@]1(O)CC[C@H]2[C@@H]3CCc4cc(O)ccc4[C@H]3CC[C@@]21C, the survivor count (dose: 80.0 mg/kg/injection, schedule: Q02DX009 (ip), vehicle: Klucel (hydroxypropylcellulose) (HPC)) was 10 of 10, the survivor count (dose: 160.0 mg/kg/injection, schedule: Q02DX009 (ip), vehicle: Klucel (hydroxypropylcellulose) (HPC)) was 10 of 10 and the survivor count (dose: 320.0 mg/kg/injection, schedule: Q02DX009 (ip), vehicle: Klucel (hydroxypropylcellulose) (HPC)) was 9 of 10. The survivor count (dose: 640.0 mg/kg/injection, schedule: Q02DX009 (ip), vehicle: Klucel (hydroxypropylcellulose) (HPC)) was 5 of 10.

With COC1CC(CC2CCC(C)C(C(C)C(=O)O)O2)OC2(OC(C)(C3CCC(C)(C4OC(C5OC(O)(CO)C(C)CC5C)CC4C)O3)CC2C)C1C (stereo not drawn) the survivor count (dose: 5.0 mg/kg/injection, schedule: Q01DX009 (ip), vehicle: Klucel (hydroxypropylcellulose) (HPC)) was 9 of 10.

In the case of C=CCN(CC=C)P(=O)(N1CC1C)N1CC1C (stereo not drawn), the survivor count [2] is reported as 10 of 10, the survivor count [3] is reported as 10 of 10 and the survivor count (dose: 10.0 mg/kg/injection, schedule: Q01DX009 (ip), vehicle: saline) is reported as 8 of 10. For the same compound, the survivor count (dose: 20.0 mg/kg/injection, schedule: Q01DX009 (ip), vehicle: saline) was 7 of 10.

In the case of CCC1CN2CCC3(C(=O)Nc4ccccc43)C2CC1/C(=C/OC)C(=O)OC (stereo not drawn), the survivor count [4] is reported as 3 of 10, the survivor count [5] is reported as 0 of 10 and the survivor count [6] is reported as 0 of 10.

COC(=O)[C@H]1[C@H]2C[C@@H]3c4[nH]c5cc(OC)ccc5c4CCN3C[C@H]2C[C@@H](OC(=O)c2cc(OC)c(OC)c(OC)c2)[C@@H]1OC was tested, and the survivor count (dose: 1.56 mg/kg/injection, schedule: Q01DX009 (ip), vehicle: saline) was 10 of 10, the survivor count (dose: 3.12 mg/kg/injection, schedule: Q01DX009 (ip), vehicle: saline) was 10 of 10 and the survivor count (dose: 6.25 mg/kg/injection, schedule: Q01DX009 (ip), vehicle: saline) was 9 of 10. For the same compound, the survivor count (dose: 12.5 mg/kg/injection, schedule: Q01DX009 (ip), vehicle: saline) was 10 of 10 and the survivor count (dose: 25.0 mg/kg/injection, schedule: Q01DX009 (ip), vehicle: saline) was 9 of 10.

COCCNCCOC was tested, and the T/C (dose: 80.0 mg/kg/injection, schedule: Q01DX009 (ip), vehicle: saline) was 134 % of control.

With CCCCNC(C)(C)C(SS)c1ccco1 (stereo not drawn) the survivor count (dose: 24.0 mg/kg/injection, schedule: Q01DX009 (ip), vehicle: alcohol) was 10 of 10, the survivor count (dose: 24.0 mg/kg/injection, schedule: Q01DX009 (ip), vehicle: saline) was 4 of 4 and the T/C [7] was 135 % of control. For the same compound, the survivor count [7] was 10 of 10, the survivor count (dose: 55.0 mg/kg/injection, schedule: Q01DX009 (ip), vehicle: alcohol) was 10 of 10 and the survivor count (dose: 75.0 mg/kg/injection, schedule: Q01DX009 (ip), vehicle: alcohol) was 9 of 10. The survivor count (dose: 150.0 mg/kg/injection, schedule: Q01DX009 (ip), vehicle: alcohol) was 2 of 10.

For NC(=O)c1[nH]nc(C2OC(CO)C(O)C2O)c1O (stereo not drawn), the T/C (dose: 0.25 mg/kg/injection, schedule: Q01DX009 (ip), vehicle: saline) was 142 % of control, the survivor count [1] was 10 of 10 and the survivor count [2] was 9 of 10 and 10 of 10. For the same compound, the survivor count [3] was 9 of 10.

For CC1(C)N=C(N)N=C(N)N1c1ccc(OCCNS(=O)(=O)c2cccc(S(=O)(=O)F)c2)c(Cl)c1, the T/C [4] was 126 % of control, the survivor count [5] was 9 of 10 and the survivor count [6] was 0 of 10.

For Clc1ccc(C(c2ccc(Cl)cc2)C(Cl)(Cl)Cl)cc1, the survivor count (dose: 64.0 mg/kg/injection, schedule: Q01DX009 (ip), vehicle: Klucel (hydroxypropylcellulose) (HPC)) was 10 of 10, the survivor count (dose: 128.0 mg/kg/injection, schedule: Q01DX009 (ip), vehicle: Klucel (hydroxypropylcellulose) (HPC)) was 10 of 10 and the survivor count (dose: 256.0 mg/kg/injection, schedule: Q01DX009 (ip), vehicle: Klucel (hydroxypropylcellulose) (HPC)) was 9 of 10.

With Cc1c(Cl)c(Cl)c(Cl)c(Cl)c1Cl the survivor count [8] was 9 of 10, the survivor count [9] was 10 of 10 and the survivor count [10] was 10 of 10.

CCO/C=C1\SC(=S)N(Cc2ccccc2)C1=O was tested, and the survivor count (dose: 12.5 mg/kg/injection, schedule: Q01DX009 (ip), vehicle: Klucel (hydroxypropylcellulose) (HPC)) was 10 of 10, the survivor count (dose: 50.0 mg/kg/injection, schedule: Q01DX009 (ip), vehicle: Klucel (hydroxypropylcellulose) (HPC)) was 1 of 10 and 9 of 10 and the survivor count [8] was 4 of 10 and 8 of 10. The survivor count [9] was 0 of 10 and the survivor count [10] was 0 of 10.

COC(=O)C1Oc2ccc(Cl)cc2Cc2cc(Cl)ccc2O1 was tested, and the survivor count (dose: 20.0 mg/kg/injection, schedule: Q01DX009 (ip), vehicle: Klucel (hydroxypropylcellulose) (HPC)) was 9 of 10, the survivor count (dose: 40.0 mg/kg/injection, schedule: Q01DX009 (ip), vehicle: Klucel (hydroxypropylcellulose) (HPC)) was 9 of 10 and the survivor count (dose: 75.0 mg/kg/injection, schedule: Q01DX009 (ip), vehicle: Klucel (hydroxypropylcellulose) (HPC)) was 8 of 10. The survivor count (dose: 150.0 mg/kg/injection, schedule: Q01DX009 (ip), vehicle: Klucel (hydroxypropylcellulose) (HPC)) was 6 of 10 and the survivor count (dose: 300.0 mg/kg/injection, schedule: Q01DX009 (ip), vehicle: Klucel (hydroxypropylcellulose) (HPC)) was 5 of 10.

With NC(CNC(=O)CBr)C(=O)O (stereo not drawn) the survivor count (dose: 50.0 mg/kg/injection, schedule: Q01DX009 (ip), vehicle: water) was 8 of 10 and the survivor count (dose: 100.0 mg/kg/injection, schedule: Q01DX009 (ip), vehicle: water) was 0 of 10.
